Values from PubChem BioAssay AID1671195 (Yale University, 2021)
The whole screen tested about 22,000 reagents; below is a random part of them. Over the whole deposit, about 1,510 (6.9%) are marked active. 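Active includes knockdowns raising or lowering LDL uptake; positive z-scores mean more uptake, negative mean less.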 Entries without a mark were called inactive.

Test: 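Regulators of LDL receptor activity judged by labelled LDL uptake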 (primary screen)
Cells: human Huh7 hepatoma cells
Reagents: siRNA pool against human genes, 18 nM
Duration: about 2 to 2.5 days of knockdown, then 8 h LDL uptake
Challenge: DiI-labelled LDL at 30 µg/ml for 8 h, in lipoprotein-deficient serum medium
Measured: 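Per-cell DiI-LDL intensity by automated imaging; well means scaled to the plate median and given as a robust z-score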
Scale: robust z-score: higher = more LDL uptake after knockdown
Rule for the call: 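Active when two or more replicates show a robust z-score above 2 or below -2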

CHRNB1 → robust z-score, replicate 1 = -1.83; robust z-score, replicate 2 = -2.22; robust z-score, replicate 3 = -1.66
TAC1 → robust z-score, replicate 1 = 0.00632; robust z-score, replicate 2 = -0.494; robust z-score, replicate 3 = 0.218
LOC284134 (retired record) → robust z-score, replicate 1 = 2.16; robust z-score, replicate 2 = 1.9; robust z-score, replicate 3 = 1.71
ANP32F (retired record) → robust z-score, replicate 1 = -0.19; robust z-score, replicate 2 = -0.296; robust z-score, replicate 3 = -0.327
SHB → robust z-score, replicate 1 = -0.0988; robust z-score, replicate 2 = -1.41; robust z-score, replicate 3 = -1.27
TVP23B → robust z-score, replicate 1 = -1.84; robust z-score, replicate 2 = 1.24; robust z-score, replicate 3 = 1.39
DNAH8 → robust z-score, replicate 1 = 1.1; robust z-score, replicate 2 = 1.32; robust z-score, replicate 3 = 0.804
LOC391352 (retired record) → robust z-score, replicate 1 = -0.411; robust z-score, replicate 2 = 0.448; robust z-score, replicate 3 = 0.406
XRRA1 → robust z-score, replicate 1 = -0.937; robust z-score, replicate 2 = -1.09; robust z-score, replicate 3 = -0.243
SLC7A3 → robust z-score, replicate 1 = -1.35; robust z-score, replicate 2 = -1.13; robust z-score, replicate 3 = -1.44
RELL2 → robust z-score, replicate 1 = -0.0436; robust z-score, replicate 2 = -0.257; robust z-score, replicate 3 = 0.195
GPR42 → robust z-score, replicate 1 = -0.0798; robust z-score, replicate 2 = 0.0998; robust z-score, replicate 3 = 0.121
TMEM205 → robust z-score, replicate 1 = -0.143; robust z-score, replicate 2 = -0.269; robust z-score, replicate 3 = 0.321
STMN2 → robust z-score, replicate 1 = -0.926; robust z-score, replicate 2 = -1.39; robust z-score, replicate 3 = -1.85
FGF19 → robust z-score, replicate 1 = 1.33; robust z-score, replicate 2 = 0.62; robust z-score, replicate 3 = 0.0212
EPHA3 → robust z-score, replicate 1 = -0.279; robust z-score, replicate 2 = -0.583; robust z-score, replicate 3 = -0.997

3 successive entries from above:
DNAH8 → robust z-score, replicate 1 = 1.1; robust z-score, replicate 2 = 1.32; robust z-score, replicate 3 = 0.804
LOC391352 (retired record) → robust z-score, replicate 1 = -0.411; robust z-score, replicate 2 = 0.448; robust z-score, replicate 3 = 0.406
XRRA1 → robust z-score, replicate 1 = -0.937; robust z-score, replicate 2 = -1.09; robust z-score, replicate 3 = -0.243

The list goes on.
COL7A1 → robust z-score, replicate 1 = 1.08; robust z-score, replicate 2 = 1.02; robust z-score, replicate 3 = 1.03
GSTA1 → robust z-score, replicate 1 = -1.41; robust z-score, replicate 2 = 0.0655; robust z-score, replicate 3 = -1.65
WNT3A → robust z-score, replicate 1 = -1.06; robust z-score, replicate 2 = -0.709; robust z-score, replicate 3 = -1.1
ARGLU1-DT → robust z-score, replicate 1 = -0.812; robust z-score, replicate 2 = -0.835; robust z-score, replicate 3 = -0.79
ICE2 → robust z-score, replicate 1 = -1.96; robust z-score, replicate 2 = -1.64; robust z-score, replicate 3 = -1.71
ZNF892 → robust z-score, replicate 1 = 0.381; robust z-score, replicate 2 = 0.101; robust z-score, replicate 3 = 0.355
GABRA3 → robust z-score, replicate 1 = -1.31; robust z-score, replicate 2 = -0.931; robust z-score, replicate 3 = -1.11
SHCBP1 → robust z-score, replicate 1 = 2.78 (active); robust z-score, replicate 2 = 2.75; robust z-score, replicate 3 = 2.62
FKBP4P2 → robust z-score, replicate 1 = 2.58 (active); robust z-score, replicate 2 = 2.82; robust z-score, replicate 3 = 2.51
CHD7 → robust z-score, replicate 1 = 0.184; robust z-score, replicate 2 = 0.0828; robust z-score, replicate 3 = 0.304
IGHV1OR15-9 → robust z-score, replicate 1 = 0.488; robust z-score, replicate 2 = 0.514; robust z-score, replicate 3 = 0.225
SLC24A4 → robust z-score, replicate 1 = 0.0979; robust z-score, replicate 2 = -0.388; robust z-score, replicate 3 = 0.0327
APOC1 → robust z-score, replicate 1 = 1.2; robust z-score, replicate 2 = 1.4; robust z-score, replicate 3 = 0.897
HSPBAP1 → robust z-score, replicate 1 = -0.149; robust z-score, replicate 2 = 0.554; robust z-score, replicate 3 = 0.0901
